Reference: publication PMC5504030
Results are given in words; binding and its absence hold for the method and conditions named. In cells and extracts the contact can be indirect. Binding calls can cover weak binding; strength is not graded here.

Experiments:
[1] = target: T1, melanoma cell adhesion molecule (MCAM) (mouse (endogenous in bEnd.3)) (UniProt Q8R2Y2); assay: co-IP; bEnd cells transfected with full-length MTP carrying 6His and c-Myc tags (MTP-expres End); RIPA lysate; IP with MCAM antibody, Western blot with antibody to p38, GSK3β or MCAM
T1 sequence: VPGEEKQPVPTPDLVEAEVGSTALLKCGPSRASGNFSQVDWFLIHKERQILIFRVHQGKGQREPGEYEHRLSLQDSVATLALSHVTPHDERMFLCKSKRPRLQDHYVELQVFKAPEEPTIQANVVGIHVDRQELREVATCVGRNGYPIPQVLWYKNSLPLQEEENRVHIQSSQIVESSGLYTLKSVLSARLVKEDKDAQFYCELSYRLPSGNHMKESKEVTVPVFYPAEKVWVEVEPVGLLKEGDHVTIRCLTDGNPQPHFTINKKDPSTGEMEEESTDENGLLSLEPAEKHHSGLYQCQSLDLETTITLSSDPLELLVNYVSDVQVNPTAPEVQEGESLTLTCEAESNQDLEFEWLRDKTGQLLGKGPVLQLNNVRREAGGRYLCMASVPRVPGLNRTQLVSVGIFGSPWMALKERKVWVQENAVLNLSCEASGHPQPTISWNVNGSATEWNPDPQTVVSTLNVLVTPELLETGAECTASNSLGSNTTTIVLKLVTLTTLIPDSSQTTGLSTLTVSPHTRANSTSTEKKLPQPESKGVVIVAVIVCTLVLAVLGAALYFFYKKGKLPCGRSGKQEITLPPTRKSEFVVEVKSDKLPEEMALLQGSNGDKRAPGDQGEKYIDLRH

[2] = target: T1, melanoma cell adhesion molecule (MCAM) (mouse (endogenous in bEnd.3)); assay: co-IP; wild-type bEnd cells (Wt-End, no MTP); RIPA lysate; IP with MCAM antibody, Western blot with antibody to p38, GSK3β or MCAM

With p38MAPK (mouse (endogenous in bEnd.3)) the binding [1] was “binds” and the binding [2] was “binds”.
